Measurements published in PubChem BioAssay AID504444 (National Center for Advancing Translational Sciences (NCATS), 2011).
The whole screen tested about 360,000 compounds, of which about 7,500 (2.1%) were called active. Inconclusive means that the source gave no clear call. Such entries were picked first, then a sample of the others. Calls come from the whole dose curve; as a rule, active = well fitted inhibition curve with a large enough effect; inconclusive = small, poorly fitted or top-dose-only effect, or effect the other way; inactive = flat fitted curve, though single readings scatter. Where the call is inconclusive, the potency comes from a doubtful curve fit.

Experiment: Nrf2 qHTS screen for inhibitors; note: nearly all actives have a fitted effect of over 60% in size
Conditions: A549 ARE-Fluc reporter, luciferase luminescence, 18-24 h; activity change, negative = inhibition: at 46 µM (top of the series)
How it was run: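 Quantitative HTS in A549 cells stably bearing an antioxidant response element-firefly luciferase construct. Inhibition of Nrf2-driven transcription was scored by luminescence after 18-24 h of compound exposure at 37 °C.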
% is set by controls: 0 for no effect and ±100 for the full control effect; potency is the fitted concentration of half-maximal effect.

| Structure (SMILES) | activity change, negative = inhibition | Potency |
| --- | --- | --- |
| Cc1ccc2cc(CCl)c(Cl)nc2c1 | inactive: 10.6% | – |
| Cn1c(-c2ccc(F)cc2)cc2onc(-c3c(F)cccc3Cl)c2c1=O | – | inconclusive: 18.4 µM [activator, partial curve] |
| CCCn1cnc2cc(NCc3ccc(OC)cc3OC)ccc21 | inactive: -12.8% | – |
| CCOc1ccc(NS(=O)(=O)c2ccc(C(=O)NCC(C)(C)N3CCOCC3)cc2)cc1 | inactive: -14.4% | – |
| CS(=O)(=O)N(CC(=O)NCCc1ccccc1)C1CCCCC1 | inactive: 2.79% | – |
| CCCN(CCC)S(=O)(=O)c1ccc(C(=O)Nc2nnc(CSC)o2)cc1 | – | active: 9.2 µM |
| CCOc1ccc(CC(=O)N2CCc3cc(OC)c(OC)cc3C2COc2ccc3c(C)cc(=O)oc3c2)cc1 (stereo not given) | inactive: 7.82% [at 9.27 µM] | – |
| CCCCCCCCNC(=O)/C(C#N)=C/c1ccc2c(c1)OCCO2 | – | inconclusive: 29.1 µM [falling, partial curve, poor fit] |
| CCOC(=O)C1=C(C)NC(C)=C(C(=O)OCC)C1c1cn(-c2ccccc2)nc1-c1ccco1 | inactive: -13.3% | – |
| CCOC(=O)N1CCN(c2ccc(C(=O)CC)cc2F)CC1 | – | inconclusive: 25.9 µM [activator, single point] |
| CN(C)CCCNc1cc(C(C)(C)C)nc2c(-c3ccccc3)cnn12 | – | inconclusive: 18.4 µM [activator, single point] |
| O=C(CSc1nc2ccccc2c(=O)n1-c1ccc(F)cc1)Nc1cc(S(=O)(=O)N2CCOCC2)ccc1Cl | – | inconclusive: 2.59 µM [falling, partial curve, poor fit] |
| Cc1ccc(-c2nn(-c3ccccc3)cc2/C=C/C(=O)O)o1 | – | inconclusive: 18.4 µM [falling, single point] |
| Cc1cccc(C)c1NC(=O)c1ccc(CN2CCc3ccccc3C2)cc1 | – | inconclusive: 2.91 µM [falling, full curve, poor fit] |
| COc1ccc2c(c1)c1c(c(=O)n(Cc3ccccc3)c(=O)n1CC(=O)NCc1ccccc1)n2C | – | inconclusive: 10.3 µM [activator, partial curve] |
| Cc1ccc(C(=O)Nc2ccsc2C(=O)O)cc1 | – | inconclusive: 2.59 µM [activator, partial curve] |
| Cc1cccc2c(N)c3c(nc12)N(C)CC3 | – | inconclusive: 32.6 µM [falling, single point] |
| CNc1ncnc2c1ncn2[C@@H]1O[C@H](CO)[C@@H](O)[C@H]1O | inactive: -3.26% | – |
| N#Cc1c(N2CCCCC2)nc(N2CCCCC2)c2c1CCN(Cc1ccccc1)C2 | inactive: -21.3% | – |
| COc1ccc(CNCc2c(C(=O)O)n(Cc3ccc(F)cc3)c3cc(C)ccc23)cc1OC | – | inconclusive: 32.6 µM [falling, single point] |

For reference, 3 of the compounds above.

| Structure (SMILES) | activity change, negative = inhibition | Potency |
| --- | --- | --- |
| Cc1cccc2c(N)c3c(nc12)N(C)CC3 | – | inconclusive: 32.6 µM [falling, single point] |
| CNc1ncnc2c1ncn2[C@@H]1O[C@H](CO)[C@@H](O)[C@H]1O | inactive: -3.26% | – |
| N#Cc1c(N2CCCCC2)nc(N2CCCCC2)c2c1CCN(Cc1ccccc1)C2 | inactive: -21.3% | – |
